The record followed here is patent US20210324059A1.

These are yes or no findings as the source states them, for the method shown. Some entries that bind do so weakly or less than the wild type. Tags and fused reporters may be left off the sequences shown.

Test [1] addresses T1, human Loricrin (human) (UniProt P23490).
T1 sequence: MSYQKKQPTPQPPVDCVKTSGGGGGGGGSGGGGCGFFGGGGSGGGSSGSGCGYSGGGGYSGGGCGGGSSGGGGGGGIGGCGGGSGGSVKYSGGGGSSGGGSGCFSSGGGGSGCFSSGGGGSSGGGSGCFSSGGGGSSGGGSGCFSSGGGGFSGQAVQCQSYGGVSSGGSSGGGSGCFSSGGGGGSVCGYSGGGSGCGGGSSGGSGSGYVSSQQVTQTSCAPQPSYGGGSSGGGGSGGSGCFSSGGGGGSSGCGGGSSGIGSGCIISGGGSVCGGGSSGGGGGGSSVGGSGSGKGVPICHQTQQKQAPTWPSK
Nature of the test: quality control ELISA, chimeric human/mouse IgG1 on immobilized Loricrin, signal over background. On the technique in general: In an ELISA, binding on a coated surface is turned into a signal by an enzyme label.

Test [2] concerns the target T1, human Loricrin (human). Nature of the test: automated immunohistochemistry, fast red chromogen.

B1: full length chimeric antibody AbD33047 with an IgG1 mouse Fc region (antibody, V domains shown)
VH: QVQLVQSGAEVKKPGASVKVSCKASGYTFNDYYIHWVRQAPGQGLEWMGVISPNSGKTNYAQKFQGRVTMTRDTSISTAYMELSRLRSEDTAVYYCARDLYPDSSAFDIWGQGTLVTVSS
VL: DIELTQPPSVSVSPGQTASITCSGDNLGDKYAHWYQQKPGQAPVLVIYDDNERPSGIPERFSGSNSGNTATLTISGTQAEDEADYYCQSYDSGNRVFGGGTKLTVLG
Turning to B1, the binding result in test [1] and in test [2] was “binds” each time.
